Results from PubChem BioAssay AID1688 (National Center for Advancing Translational Sciences (NCATS), 2009).
About 2,400 (1.1%) of roughly 220,000 compounds were called active. The shares of active, inactive and inconclusive entries below differ from those in the screen. The call rests on the fitted dose curve; in most records, active means well fitted inhibition curve with a large enough effect; inconclusive means small, poorly fitted or top-dose-only effect, or effect the other way; inactive means no such curve, though single readings can be large or run the other way. A potency beside an inconclusive call is a rough fit, not a confirmed value.

Test: qHTS Multiplex Assay to Identify Dual Action Probes in a Cell Model of Huntington: Aggregate Formation (GFP); further: nearly all actives have a fitted effect of over 60% in size
Conditions: PC12 HttQ103-GFP aggregates, Acumen cytometry, 40 h; activity change, negative = inhibition: at 46.1 µM (top of the series) unless noted
In short: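 Inducible Q103 Huntingtin exon 1–GFP PC12 line, 1500 cells/well in phenol red free DMEM with 5% equine and 5% calf serum. Tebufenozide 100 nM induced expression; compounds titrated; aggregates quantified by cytometry.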
On the % scale 0 is the no-effect control and ±100 the full control effect; potency means the concentration at half of the fitted maximal effect.

Compound	Potency	activity change, negative = inhibition
O=c1c(/C=N/OCc2ccc(Cl)cc2Cl)c[nH]n1-c1cccc(Cl)n1	active: 10 µM	
CCCOc1ccc(OCCN2CCCC(C)C2)cc1 (stereo unspecified)		inactive: 8.18%
COc1ccc2c(c1)-c1c(ssc1=S)C(C)(C)N2C(=O)CSC1=NCCS1	active: 11.2 µM	
N#C/C(=C(/O)CCl)c1nc2ccccc2[nH]1	inconclusive: 35.5 µM [inhibitor, single point]	
Cn1ncc([N+](=O)[O-])c1C(=O)Nc1ccc(-c2nc3ccccc3[nH]2)cc1		inactive: -22.1%
CC(C)(C)c1ccc(NC(=O)COC(=O)c2ccc([N+](=O)[O-])s2)cc1	inconclusive: 3.98 µM [inhibitor, partial curve]	
COc1ccnc(Oc2ccccc2)c1C(=O)N/C=N/OCc1ccc(F)cc1Cl	inconclusive: 35.5 µM [inhibitor, single point]	
Cc1ccc(Cn2ncc3c(N4CCN(Cc5ccc(Cl)cc5)CC4)ncnc32)cc1	inconclusive: 15.8 µM [inhibitor, single point]	
Cc1ccc2c(c1)C(C)(C)[C@]1(C)NC(=O)CCN21	inconclusive: 8.91 µM [inhibitor, partial curve]	
O=c1c2c3c(sc2nc2n1CCCCC2)CCCC3		inactive: 1.2%
CCOc1ccc(NC(=S)NNC(=O)c2cc(Br)ccc2Cl)cc1	inconclusive: 12.6 µM [inhibitor, single point]	
Nc1c(C(=O)Nc2ccc(S(=O)(=O)N3CCCC3)cc2)sc2nc3ccc(OC(F)(F)F)cc3cc12	inconclusive: 25.1 µM [inhibitor, single point]	
O=C(N/N=C/c1cc([N+](=O)[O-])ccc1O)C12CC3CC(CC(C3)C1)C2	inconclusive: 12.6 µM [inhibitor, single point]	
CCCSc1cc(=O)n(-c2ccccc2)nc1C(=O)OCC	inconclusive: 6.31 µM [activator, single point]	
COC(=O)c1scc(C)c1NC(=O)CC1NCCNC1=O (stereo unspecified)	inconclusive: 5.62 µM [inhibitor, single point]	
O=C(NCC1CCCO1)c1ccc2ccccc2n1 (stereo unspecified)	inconclusive: 17.8 µM [activator, single point]	
CN=C1C([N+](=O)[O-])=CC=C2C1=NC1(CCCCC1)N2O		inactive: 4.9%
O=C(Nc1c(S(=O)(=O)c2ccc(Cl)cc2)csc1Br)c1ccccc1Cl		inactive: -6.33% [at 9.22 µM]
O=C(Nc1cccnc1)c1ccc(NC(=O)c2ccco2)cc1		inactive: 3.75%
O=C(NNC(=S)NCc1ccco1)c1cccs1	inconclusive: 1.78 µM [inhibitor, partial curve]	
Cc1ccc(C)c2[nH]c(=O)c(CCNC(=O)c3ccco3)cc12		inactive: 5.77%
CC(C(=O)N1CCCCC1)N1C(=O)c2ccccc2C1=O (stereo unspecified)	active: 31.6 µM	
O=[N+]([O-])c1cc2oc3c(c2c(C=NCc2ccccc2)c1O)CCCC3		inactive: 26.3%

Pulled by structure from above, 3 records:
Compound	Potency	activity change, negative = inhibition
CC(C)(C)c1ccc(NC(=O)COC(=O)c2ccc([N+](=O)[O-])s2)cc1	inconclusive: 3.98 µM [inhibitor, partial curve]	
COc1ccnc(Oc2ccccc2)c1C(=O)N/C=N/OCc1ccc(F)cc1Cl	inconclusive: 35.5 µM [inhibitor, single point]	
O=C(NCC1CCCO1)c1ccc2ccccc2n1 (stereo unspecified)	inconclusive: 17.8 µM [activator, single point]	

Additional structures follow:

Compound	Potency	activity change, negative = inhibition
CC(C)c1ccc(/C=C/C(=O)NCCCc2ccccc2)cc1	inconclusive: 35.5 µM [inhibitor, single point]	
Cc1ccc(N/N=C(\Cc2nc3ccccc3[nH]2)c2ccccc2)cc1	inconclusive: 14.1 µM [activator, partial curve]	
CCCCNC(=O)C(=O)N/N=C/c1ccc(OCc2ccccc2)cc1	inconclusive: 316 µM [inhibitor, partial curve, poor fit]	
O=C(CSc1n[nH]c(-c2ccc(S(=O)(=O)NC3CCCCC3)cc2)n1)N1CCCC1	inconclusive: 8.91 µM [inhibitor, partial curve]	
O=C(c1ccc(COc2ccccc2Cl)o1)N1CCN(c2ccccc2)CC1		inactive: -2.81%
CCOC(=O)/C(C#N)=C1/C=CN(Cc2ccccc2)C=N1		inactive: 11.5%
CCC(=O)OCCNc1cc(Sc2nc3ccccc3s2)c2nonc2c1[N+](=O)[O-]	inconclusive: 25.1 µM [inhibitor, single point]	
O=C(O)/C(=C\c1ccc(Cl)cc1)c1ccc(F)cc1	inconclusive: 39.8 µM [inhibitor, partial curve, poor fit]	
COc1ccccc1-n1c(C)c2c(OC)cccc(=O)c2c1C	inconclusive: 11.2 µM [activator, partial curve, poor fit]	
COc1cc(NC(C(=O)Nc2cccc(C(C)=O)c2)c2ccccc2)cc(OC)c1OC (stereo unspecified)	inconclusive: 15.8 µM [activator, single point]	
CC(C)(C)n1nnnc1C(c1cccnc1)N1CCN(C2CCCCC2)CC1 (stereo unspecified)		inactive: 2.83%
COc1cccc(C2Nc3ccccc3C(=O)N2O)c1O (stereo unspecified)	inconclusive: 10 µM [inhibitor, partial curve, poor fit]	
COc1ccc(S(=O)(=O)NCc2ccccn2)cc1		inactive: 2.7%
COCCNC(=O)c1onc(CCl)c1C(=O)OC	inconclusive: 14.1 µM [inhibitor, single point]	
COc1cc(NC(=O)c2cccs2)c(OC)cc1NC(=O)c1ccco1		inactive: 7.64%
O=C(Cn1cnc2ccccc2c1=O)NNC(=O)c1ccccc1		inactive: -6.33% [at 9.22 µM]
CC(C)CCNC(=O)CN(C(=O)Cn1nnc(-c2ccccc2F)n1)c1cccc2c1CCCC2	inconclusive: 10 µM [inhibitor, partial curve, poor fit]	
CC(C)(C)c1nnc2sc(SCC(=O)N3CCCc4ccccc43)nn2c1=O	inconclusive: 35.5 µM [inhibitor, single point]	
CSc1nc(N(CCO)CCO)c2sc3nc(-c4ccco4)c4c(c3c2n1)CCC4	inconclusive: 35.5 µM [inhibitor, single point]	
Cc1ccc(NC2=C(Cl)C(=O)OC2OC(=O)c2ccccc2)c(C)c1 (stereo unspecified)	inconclusive: 17.8 µM [inhibitor, single point]	
Cc1ccc(CN(c2ccc(C(=O)N3CCc4ccccc4C3)cc2)S(C)(=O)=O)cc1		inactive: -24.5%
CCc1ccccc1NC(=S)N(CCN(C)C)C(C)c1ccccn1 (stereo unspecified)	inconclusive: 0.562 µM [inhibitor, full curve, poor fit]	
COc1ccc(Nc2nc3ccccc3nc2NS(=O)(=O)c2cccs2)c(OC)c1		inactive: -17.2% [at 9.22 µM]
